Assay [1] has as its target TLR4 (mouse (endogenous in bone marrow neutrophils)) (UniProt Q9QUK6). The assay is described as follows: co-IP; IP with TLR4 antibody from lysates of WT and Ceacam1-/- mouse neutrophils, with or without LPS (100 ng/ml); immunoblot for TLR4, Syk, p-Syk, CEACAM1. On the technique in general: Immunoblotting shows a protein as a band on a membrane.
The target in assay [2] is Src family kinase Lyn (mouse (endogenous in bone marrow neutrophils)) (UniProt P25911). The assay is described as follows: co-IP; IP with anti-Lyn antibody from WT and KO neutrophils, with or without LPS (100 ng/ml); immunoblot for Syk, CEACAM1, Lyn.
Assay [3] concerns the target TLR4 (mouse (endogenous in bone marrow neutrophils)) (UniProt Q9QUK6). The assay is described as follows: co-IP; IP with TLR4 antibody from lysates of mouse neutrophils without LPS treatment; immunoblot for p-Syk, CEACAM1.

Protein sequences, listed by entry. Tags and fused reporters are not part of them. Residues count along the entry.
UniProt Q9QUK6, residues 26-835: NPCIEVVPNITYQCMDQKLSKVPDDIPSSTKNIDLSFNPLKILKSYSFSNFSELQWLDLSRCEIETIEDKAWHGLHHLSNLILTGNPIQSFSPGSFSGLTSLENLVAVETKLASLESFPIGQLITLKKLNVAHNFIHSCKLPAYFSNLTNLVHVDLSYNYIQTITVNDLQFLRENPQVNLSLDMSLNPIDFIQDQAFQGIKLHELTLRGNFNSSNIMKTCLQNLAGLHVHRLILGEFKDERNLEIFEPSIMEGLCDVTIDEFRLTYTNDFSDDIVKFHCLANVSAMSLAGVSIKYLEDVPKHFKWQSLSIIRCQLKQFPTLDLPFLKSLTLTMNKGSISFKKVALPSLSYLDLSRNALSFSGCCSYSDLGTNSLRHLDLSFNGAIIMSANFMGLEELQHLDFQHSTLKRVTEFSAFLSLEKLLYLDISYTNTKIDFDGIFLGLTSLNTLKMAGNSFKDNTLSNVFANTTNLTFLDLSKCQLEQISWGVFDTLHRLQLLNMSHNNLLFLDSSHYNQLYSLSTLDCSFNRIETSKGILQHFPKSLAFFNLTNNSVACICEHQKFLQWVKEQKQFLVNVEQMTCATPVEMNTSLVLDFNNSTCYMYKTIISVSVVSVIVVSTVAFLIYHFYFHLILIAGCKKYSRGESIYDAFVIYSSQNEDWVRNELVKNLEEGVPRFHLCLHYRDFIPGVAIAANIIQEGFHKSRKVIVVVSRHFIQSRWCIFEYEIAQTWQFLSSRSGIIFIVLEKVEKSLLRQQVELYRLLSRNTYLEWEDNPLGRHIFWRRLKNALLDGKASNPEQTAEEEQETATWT
UniProt P25911: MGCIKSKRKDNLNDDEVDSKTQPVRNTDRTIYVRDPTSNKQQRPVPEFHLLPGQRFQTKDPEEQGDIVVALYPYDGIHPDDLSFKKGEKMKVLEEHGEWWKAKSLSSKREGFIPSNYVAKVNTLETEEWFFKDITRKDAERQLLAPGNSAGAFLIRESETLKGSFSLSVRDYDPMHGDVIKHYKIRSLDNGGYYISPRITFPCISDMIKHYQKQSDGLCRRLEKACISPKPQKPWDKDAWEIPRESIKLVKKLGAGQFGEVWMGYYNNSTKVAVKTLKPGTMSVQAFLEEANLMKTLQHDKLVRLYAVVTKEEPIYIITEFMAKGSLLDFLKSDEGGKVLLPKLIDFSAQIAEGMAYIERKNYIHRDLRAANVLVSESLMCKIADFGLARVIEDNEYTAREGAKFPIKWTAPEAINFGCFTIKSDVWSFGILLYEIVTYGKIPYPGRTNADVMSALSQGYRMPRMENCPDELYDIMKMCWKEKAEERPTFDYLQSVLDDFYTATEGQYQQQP

These are yes or no findings as the source states them, for the method shown. Binding seen in cells or lysates may run through a third protein. Some binding calls cover weakened binding; strength is not graded here.

B1: CEACAM1 (receptor, UniProt P31809 35-521)
chain: EVTIEAVPPQVAEDNNVLLLVHNLPLALGAFAWYKGNTTAIDKEIARFVPNSNMNFTGQAYSGREIIYSNGSLLFQMITMKDMGVYTLDMTDENYRRTQATVRFHVHPILLKPNITSNNSNPVEGDDSVSLTCDSYTDPDNINYLWSRNGESLSEGDRLKLSEGNRTLTLLNVTRNDTGPYVCETRNPVSVNRSDPFSLNIIYGPDTPIISPSDIYLHPGSNLNLSCHAASNPPAQYFWLINEKPHASSQELFIPNITTNNSGTYTCFVNNSVTGLSRTTVKNITVLEPVTQPFLQVTNTTVKELDSVTLTCLSNDIGANIQWLFNSQSLQLTERMTLSQNNSILRIDPIKREDAGEYQCEISNPVSVRRSNSIKLDIIFDPTQGGLSDGAIAGIVIGVVAGVALIAGLAYFLYSRKSGGGSDQRDLTEHKPSTSNHNLAPSDNSPNKVDDVAYTVLNFNSQQPNRPTSAPSSPRATETVYSEVKKK
In the case of B1, the binding entry in assay [1] is “binds”; in assay [2] it was “binds”; in assay [3], “no binding (condition: neutrophils without LPS)”.

These data come from publication PMC3320586.
